One sequence from patent US11174299B2, “Peptides and compositions for prevention of cell adhesion and methods of using same” (D[…]., priority 2008, dated 2021) can be followed below.

The nature of this series: Amino acid analysis of peptide covalently immobilised on contact lenses. The following applies: average of 3 lenses.

In the case of “SVHSFDYDWYNV (SEQ ID NO: 28) (immobilized on Etafilcon A contact lens) [APi1775]”, the “peptide immobilized on contact lens” value worked out at 19.94 µg (lenses processed with 1.0 μM peptide) and 23.16 µg (lenses processed with 10.0 μM peptide).
